# Cleaved PARP after 72 h of treatment

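The test systems are human melanoma cell lines, treated with two drugs together for 72 h and then stained and imaged. Values are the share of nuclei positive for cleaved PARP as a percentage of the same share in the DMSO control: 100 is the control level, higher means more apoptosis. Concentrations were fixed for each drug; these are the higher of two levels. No replicate spread is given; individual values may be noisy. Basal and induced levels differ widely between cell lines.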 Only some of the drugs and lines screened are listed, without regard to their results. A dash means that no value is listed here.

Compounds and concentrations:
SU6656: CN(C)S(=O)(=O)c1ccc2c(c1)/C(=C/c1cc3c([nH]1)CCCC3)C(=O)N2 at 2 µM
KU-55933: O=c1cc(-c2cccc3c2Sc2ccccc2S3)oc(N2CCOCC2)c1 at 5 µM
FK866: O=C(/C=C/c1cccnc1)NCCCCC1CCN(C(=O)c2ccccc2)CC1 at 0.05 µM
NVP-TAE684: COc1cc(N2CCC(N3CCN(C)CC3)CC2)ccc1Nc1ncc(Cl)c(Nc2ccccc2S(=O)(=O)C(C)C)n1 at 0.4 µM
JZL184: O=C(Oc1ccc([N+](=O)[O-])cc1)N1CCC(C(O)(c2ccc3c(c2)OCO3)c2ccc3c(c2)OCO3)CC1 at 5 µM
perifosine: CCCCCCCCCCCCCCCCCCOP(=O)([O-])OC1CC[N+](C)(C)CC1 at 2 µM
sorafenib: CNC(=O)c1cc(Oc2ccc(NC(=O)Nc3ccc(Cl)c(C(F)(F)F)c3)cc2)ccn1 at 2 µM
CHIR-265: Cn1c(Nc2ccc(C(F)(F)F)cc2)nc2cc(Oc3ccnc(-c4ncc(C(F)(F)F)[nH]4)c3)ccc21 at 0.4 µM
embelin: CCCCCCCCCCCC1=C(O)C(=O)C=C(O)C1=O at 6 µM

Combination,A375,SK-MEL-5,IPC-298,SK-MEL-28,IST-MEL1,COLO 800,RVH-421,A2058,COLO 792,501mel
CHIR-265 + FK866,173,1850,364,131,188,246,297,329,542,-
NVP-TAE684 + embelin,114,174,105,74.6,177,130,47.5,180,151,124
SU6656 + NVP-TAE684,81.6,111,59.9,699,35.1,51.8,47.5,131,87.2,375
FK866 + sorafenib,65.8,59.0,209,59.9,276,124,203,100,345,-
SU6656 + perifosine,-,37.8,71.7,165,105,181,87.0,150,157,-
perifosine + CHIR-265,108,1050,577,97.7,289,116,116,219,1190,-
sorafenib + KU-55933,77.9,109,88.2,88.0,45.2,50.1,62.4,133,83.1,79.6
NVP-TAE684 + FK866,17.2,119,438,53.1,124,677,557,80.1,915,164
SU6656 + FK866,-,69.5,250,85.2,168,165,469,84.9,512,-
embelin + CHIR-265,99.6,734,46.3,108,58.3,94.2,567,122,1170,247
embelin + sorafenib,193,41.8,170,66.7,131,191,73.4,53.9,121,43.3
JZL184 + KU-55933,127,140,66.4,199,42.6,59.7,179,228,88.9,119
sorafenib + perifosine,129,113,99.4,30.4,182,123,47.2,118,102,-
JZL184 + sorafenib,191,90.0,29.8,82.1,148,54.7,67.7,81.5,80.2,181
NVP-TAE684 + KU-55933,67.2,120,45.5,106,67.1,67.9,55.4,249,144,271
perifosine + KU-55933,75.0,46.3,30.7,54.9,35.3,83.4,56.9,131,601,178
embelin + SU6656,36.4,56.5,39.9,112,127,70.5,165,139,66.6,116
FK866 + embelin,75.1,24.9,120,146,94.4,153,54.7,76.2,121,141
FK866 + KU-55933,117,60.2,348,87.6,88.2,410,150,132,674,94.6
JZL184 + CHIR-265,281,649,45.2,123,133,71.3,176,182,727,274
NVP-TAE684 + CHIR-265,169,666,175,111,59.2,102,261,325,1650,667
SU6656 + sorafenib,-,180,53.0,185,142,389,120,154,402,-
SU6656 + CHIR-265,-,4550,85.1,126,60.7,371,100,276,1340,-
SU6656 + KU-55933,87.5,69.0,120,249,64.7,217,88.0,142,157,436
FK866 + perifosine,102,214,599,76.8,209,214,457,96.5,477,-
CHIR-265 + sorafenib,165,4640,198,81.0,133,70.4,162,233,295,-
perifosine + NVP-TAE684,140,52.1,65.0,74.1,153,35.1,60.9,345,116,304
embelin + JZL184,104,90.8,93.5,36.6,77.7,82.2,582,92.8,17.3,95.1
JZL184 + NVP-TAE684,38.0,172,51.0,192,106,77.0,97.4,422,74.6,86.9
KU-55933 + embelin,38.1,124,58.3,133,91.7,137,230,109,208,-
perifosine + embelin,71.8,184,60.7,106,96.3,56.9,76.4,121,79.5,53.8

From a melanoma drug combination screen (doi:10.1371/journal.pone.0140310); values rounded.